PubChem BioAssay AID1259308, NCATS – 2017

- Screen: 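Candidate targets for better recombinant protein yield in mammalian cells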 (primary screen)
- System: human HEK293 embryonic kidney cells stably expressing firefly luciferase (HEK-CMV-Luc2-Hygro)
- Reagent: single siRNA against human genes, 0.8 pmol siRNA per well
- Timing: 72 h
- Read-out: 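Reporter luminescence and viable-cell signal on separate replicate plates, given as percent of non-targeting control and median/MAD z-scores, plus per-cell luciferase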
- Scale: total luciferase, z-score and total luciferase, % of control: higher = more reporter protein produced
- Active means: 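Active when the median/MAD z-score for overall luciferase is greater than 3; a gene was taken forward for validation with new siRNAs if at least two of its three siRNAs passed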
- Calls: active = raised luciferase; inactive = no rise
Here is an unselected part of about 59,000 deposited reagents. In the full data, about 1,510 (2.6%) are marked active. 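Calls use total luciferase alone and ignore viability, so some active siRNAs may act by altering cell number.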 Reagents against one gene are numbered here. Not all columns of the deposit are shown.

| gene | reagent no. | total luciferase, z-score | total luciferase, % of control | Call |
| --- | --- | --- | --- | --- |
| SEC14L6 | 1 | 1.88 | 119 | inactive |
| SEC14L6 | 2 | -0.0767 | 80.4 | inactive |
| SEC14L6 | 3 | 1.16 | 105 | inactive |
| RIMBP2 | 1 | 1.08 | 103 | inactive |
| RIMBP2 | 2 | -1.01 | 61.8 | inactive |
| RIMBP2 | 3 | -1.18 | 58.5 | inactive |
| EXOC4 | 1 | 0.113 | 84.1 | inactive |
| EXOC4 | 2 | 0.393 | 89.7 | inactive |
| EXOC4 | 3 | -0.906 | 63.9 | inactive |
| ZNF813 | 1 | 0.396 | 89.8 | inactive |
| ZNF813 | 2 | 1.3 | 108 | inactive |
| ZNF813 | 3 | 0.169 | 85.2 | inactive |
| TNMD | 1 | 0.2 | 85.9 | inactive |
| TNMD | 2 | -0.451 | 72.9 | inactive |
| TNMD | 3 | -0.00895 | 81.7 | inactive |
| TMEM183BP | 1 | -0.321 | 75.5 | inactive |
| TMEM183BP | 2 | 0.951 | 101 | inactive |
| TMEM183BP | 3 | 0.321 | 88.3 | inactive |
| SMIM8 | 1 | -1.07 | 60.7 | inactive |
| SMIM8 | 2 | -1.95 | 43.1 | inactive |
| SMIM8 | 3 | 0.59 | 93.6 | inactive |
| CPA5 | 1 | -0.226 | 77.4 | inactive |
| CPA5 | 2 | -0.237 | 77.2 | inactive |
| CPA5 | 3 | -0.547 | 71 | inactive |
| SNRNP35 | 1 | 0.327 | 88.4 | inactive |
| SNRNP35 | 2 | 0.64 | 94.6 | inactive |
| SNRNP35 | 3 | -0.265 | 76.6 | inactive |
| DHX9 | 1 | 2.44 | 130 | inactive |
| DHX9 | 2 | -0.378 | 74.4 | inactive |
| DHX9 | 3 | 1.24 | 107 | inactive |
| MAP1LC3B2 | 1 | -0.426 | 73.4 | inactive |
| MAP1LC3B2 | 2 | 3.34 | 148 | active |
| MAP1LC3B2 | 3 | 0.63 | 94.4 | inactive |
| PIP4P2 | 1 | 1.23 | 106 | inactive |
| PIP4P2 | 2 | 0.48 | 91.4 | inactive |
| PIP4P2 | 3 | 1.82 | 118 | inactive |
| UGT2B15 | 1 | -0.8 | 66 | inactive |
| UGT2B15 | 2 | 0.365 | 89.1 | inactive |
| UGT2B15 | 3 | -1.97 | 42.7 | inactive |

Records above whose target name starts with P or p (3):
| gene | reagent no. | total luciferase, z-score | total luciferase, % of control | Call |
| --- | --- | --- | --- | --- |
| PIP4P2 | 1 | 1.23 | 106 | inactive |
| PIP4P2 | 2 | 0.48 | 91.4 | inactive |
| PIP4P2 | 3 | 1.82 | 118 | inactive |
